Test results reported in patent EP1207395A1, “METHOD FOR MEASURING KINASE ACTIVITY OF CYCLIN/CDK COMPLEX” (Medical & Biological Laboratories Co., Ltd., priority 1999, dated 2001).
For at least one compound, name, drawing or mass did not settle the structure.

Amino acid sequences for entries named in this document (tags omitted). A change or cut given only in a name is not applied to a line headed by its entry.
UniProt P11802: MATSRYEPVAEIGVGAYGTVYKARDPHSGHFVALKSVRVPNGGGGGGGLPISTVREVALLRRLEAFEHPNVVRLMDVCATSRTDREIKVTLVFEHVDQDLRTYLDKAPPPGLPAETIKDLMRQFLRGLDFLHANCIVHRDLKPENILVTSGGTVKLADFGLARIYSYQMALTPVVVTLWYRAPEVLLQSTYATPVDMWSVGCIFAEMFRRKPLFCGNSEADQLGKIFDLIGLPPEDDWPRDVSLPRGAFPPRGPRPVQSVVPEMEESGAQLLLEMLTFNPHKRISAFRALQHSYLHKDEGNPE

Biological target: T1, cyclin D1/CDK4 complex (Homo sapiens, UniProt P11802)
T1 construct: 6xHis (N); made in house; host or cells: Sf9 insect cells (baculovirus)
Test: ELISA method, inhibitory effect on cyclin D1/CDK4 complex
Type: biochemical
Procedure: Clone 1C12 (specific to Thr356), clone 4E4 (specific to Ser612), and clone 2C4 (specific to Ser780) were used as the anti-phosphorylated RB monoclonal antibodies. Each anti-phosphorylated RB monoclonal antibody was diluted to a concentration of 10 µg/ml in PBS, and 100 µl of the diluted solution was added to each well of the plate followed by incubating at 4 °C for 15 hours. After removing the antibody solution, the reaction product in each well was blocked at 4°C for 24 hours in a PBS solution (5% sucrose, 0.1% NaN3) containing 2.5% of BSA. The plate was subjected to measurements after airdrying.
The RB amino acid sequence 301aa-928aa was expressed as a GST fusion protein in Escherichia coli, and the protein (RB301) purified using glutathione Sepharose and phosho-Cellulose columns (P11) was used as the substrate. Cyclin D1/CDK4, cyclin A/CDK2, cyclin E/CDK2, and cyclin B/CDK1, respectively, were expressed in the sf9 cells using baculovirus, and were purified using a cobalt column and phospho-Cellulose column in order to use them as the cyclin/CDK complexes.
RB301 (10µg/ml), 100µM ATP, and respective Cyclin/CDK were added to the phosphate buffer (50 mM HEPES, 0.05% Triton X, 15 mM MgCl2, 2 mM EGTA, 200 µg/ml BSA) (final reaction volume of 180 µl), and was reacted for 30 minutes at 30°C. […]

For `Cn1cnc2c(NCc3ccccc3)nc(NCCO)nc21` [Olomoucine], the “inhibitory effect on cyclin D1/CDK4 compared with the other three cyclin/CDK complexes” value was “weaker than those on the other three cyclin/CDK complexes” and the “OD levels (inhibitory effect)” value (RB301 substrate, 100 µM ATP, Figs. 5 and 9) was “decreased in a inhibitor concentration-dependent manner”.
